Measured values as given in the supplement of paper PMC10849652.
Some of the results follow.

Chains of the proteins cited; added tags and fusions are not shown. Lines headed by an entry give the natural chain unless they say otherwise; changes in a name come on top.
UniProt P37198: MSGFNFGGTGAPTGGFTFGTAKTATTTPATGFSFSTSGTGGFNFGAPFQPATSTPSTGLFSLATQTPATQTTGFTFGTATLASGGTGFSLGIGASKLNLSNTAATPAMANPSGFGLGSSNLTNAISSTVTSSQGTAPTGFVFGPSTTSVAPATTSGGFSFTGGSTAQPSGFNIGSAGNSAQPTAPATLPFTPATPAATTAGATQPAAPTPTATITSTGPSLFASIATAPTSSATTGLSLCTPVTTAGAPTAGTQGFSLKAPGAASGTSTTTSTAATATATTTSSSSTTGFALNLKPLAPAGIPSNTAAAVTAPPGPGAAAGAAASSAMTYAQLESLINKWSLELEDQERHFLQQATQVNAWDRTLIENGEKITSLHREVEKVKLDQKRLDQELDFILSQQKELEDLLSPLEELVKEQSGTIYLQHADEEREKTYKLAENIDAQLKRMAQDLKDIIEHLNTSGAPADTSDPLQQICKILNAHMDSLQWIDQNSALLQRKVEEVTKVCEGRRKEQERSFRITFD
UniProt P55809: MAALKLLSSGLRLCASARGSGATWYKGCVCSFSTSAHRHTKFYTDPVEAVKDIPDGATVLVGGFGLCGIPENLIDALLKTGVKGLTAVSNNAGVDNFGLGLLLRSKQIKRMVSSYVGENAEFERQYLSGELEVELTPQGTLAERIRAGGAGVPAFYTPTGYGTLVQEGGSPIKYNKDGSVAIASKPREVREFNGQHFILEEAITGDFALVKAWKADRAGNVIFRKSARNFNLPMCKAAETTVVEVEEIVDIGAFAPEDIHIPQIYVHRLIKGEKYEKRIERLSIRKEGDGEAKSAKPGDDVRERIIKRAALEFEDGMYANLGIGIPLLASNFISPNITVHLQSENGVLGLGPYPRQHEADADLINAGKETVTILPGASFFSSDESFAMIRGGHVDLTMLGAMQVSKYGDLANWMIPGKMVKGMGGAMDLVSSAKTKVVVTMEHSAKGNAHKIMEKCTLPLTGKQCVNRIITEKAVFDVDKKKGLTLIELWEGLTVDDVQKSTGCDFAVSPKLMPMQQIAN
UniProt Q32P28: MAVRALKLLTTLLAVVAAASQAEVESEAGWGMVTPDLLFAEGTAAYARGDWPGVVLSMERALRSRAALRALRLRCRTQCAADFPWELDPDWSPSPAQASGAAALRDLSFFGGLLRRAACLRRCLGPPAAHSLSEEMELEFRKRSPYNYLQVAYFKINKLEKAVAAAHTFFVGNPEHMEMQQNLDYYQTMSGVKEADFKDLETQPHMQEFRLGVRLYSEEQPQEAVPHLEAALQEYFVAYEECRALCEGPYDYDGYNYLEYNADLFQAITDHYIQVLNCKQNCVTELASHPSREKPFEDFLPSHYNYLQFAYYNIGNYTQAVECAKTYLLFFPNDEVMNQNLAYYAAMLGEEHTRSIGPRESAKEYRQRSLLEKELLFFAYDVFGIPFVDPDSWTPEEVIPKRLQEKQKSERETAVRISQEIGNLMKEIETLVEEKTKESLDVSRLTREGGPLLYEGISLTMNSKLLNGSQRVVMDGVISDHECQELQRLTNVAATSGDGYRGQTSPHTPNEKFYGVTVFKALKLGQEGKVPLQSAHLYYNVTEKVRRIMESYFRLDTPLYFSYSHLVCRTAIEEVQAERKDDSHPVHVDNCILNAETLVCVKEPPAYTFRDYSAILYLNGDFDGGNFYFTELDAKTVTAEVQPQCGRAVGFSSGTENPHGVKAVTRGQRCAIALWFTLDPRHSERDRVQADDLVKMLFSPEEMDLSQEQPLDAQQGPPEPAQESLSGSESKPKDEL
UniProt Q8IVD9: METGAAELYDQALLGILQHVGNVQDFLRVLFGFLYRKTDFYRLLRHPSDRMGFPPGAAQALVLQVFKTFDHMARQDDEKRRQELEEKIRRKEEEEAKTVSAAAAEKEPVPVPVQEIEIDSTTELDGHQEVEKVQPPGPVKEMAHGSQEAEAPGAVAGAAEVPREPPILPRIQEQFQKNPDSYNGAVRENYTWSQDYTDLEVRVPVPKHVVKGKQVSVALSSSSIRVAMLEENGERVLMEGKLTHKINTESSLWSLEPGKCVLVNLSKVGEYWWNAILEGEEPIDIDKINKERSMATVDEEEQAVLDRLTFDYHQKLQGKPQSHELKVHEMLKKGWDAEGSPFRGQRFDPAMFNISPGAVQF
UniProt Q8TB37: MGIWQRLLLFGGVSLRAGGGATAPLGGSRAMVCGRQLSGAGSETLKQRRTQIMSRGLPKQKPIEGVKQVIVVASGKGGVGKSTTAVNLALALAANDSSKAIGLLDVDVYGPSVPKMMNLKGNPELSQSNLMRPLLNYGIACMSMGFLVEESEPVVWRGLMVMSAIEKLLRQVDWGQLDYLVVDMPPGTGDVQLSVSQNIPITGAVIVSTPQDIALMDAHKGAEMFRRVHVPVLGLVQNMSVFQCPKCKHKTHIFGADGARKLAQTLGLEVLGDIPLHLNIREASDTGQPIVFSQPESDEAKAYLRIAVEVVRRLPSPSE
UniProt Q9H8K7: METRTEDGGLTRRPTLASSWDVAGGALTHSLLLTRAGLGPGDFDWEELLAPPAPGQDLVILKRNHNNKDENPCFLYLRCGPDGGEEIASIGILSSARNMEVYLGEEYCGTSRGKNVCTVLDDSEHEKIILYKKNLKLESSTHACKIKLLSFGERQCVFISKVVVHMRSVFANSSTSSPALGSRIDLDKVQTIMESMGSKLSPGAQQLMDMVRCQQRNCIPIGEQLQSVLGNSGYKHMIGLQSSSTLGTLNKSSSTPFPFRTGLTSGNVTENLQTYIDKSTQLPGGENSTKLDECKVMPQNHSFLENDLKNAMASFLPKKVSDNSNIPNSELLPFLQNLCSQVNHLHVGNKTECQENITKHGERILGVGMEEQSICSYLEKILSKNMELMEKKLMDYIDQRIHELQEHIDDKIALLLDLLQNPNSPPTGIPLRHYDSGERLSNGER
UniProt Q7Z417: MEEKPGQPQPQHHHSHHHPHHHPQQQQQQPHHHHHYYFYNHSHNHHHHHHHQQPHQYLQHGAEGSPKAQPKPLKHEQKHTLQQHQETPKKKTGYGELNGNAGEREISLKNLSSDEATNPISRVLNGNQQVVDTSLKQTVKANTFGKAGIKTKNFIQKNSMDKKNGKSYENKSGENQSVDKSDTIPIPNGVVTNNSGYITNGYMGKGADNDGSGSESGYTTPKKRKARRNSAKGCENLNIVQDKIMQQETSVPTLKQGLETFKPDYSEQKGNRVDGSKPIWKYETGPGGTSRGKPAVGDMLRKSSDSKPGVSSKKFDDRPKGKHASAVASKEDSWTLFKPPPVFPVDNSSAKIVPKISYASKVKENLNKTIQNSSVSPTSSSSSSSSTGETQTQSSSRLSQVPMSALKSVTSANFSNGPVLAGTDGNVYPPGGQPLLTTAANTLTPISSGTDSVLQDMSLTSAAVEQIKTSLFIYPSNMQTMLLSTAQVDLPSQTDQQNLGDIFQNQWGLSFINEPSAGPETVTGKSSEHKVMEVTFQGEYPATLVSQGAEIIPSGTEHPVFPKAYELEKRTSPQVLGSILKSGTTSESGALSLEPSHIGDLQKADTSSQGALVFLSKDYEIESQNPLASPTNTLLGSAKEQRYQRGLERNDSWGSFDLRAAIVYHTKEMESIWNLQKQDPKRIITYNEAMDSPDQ
UniProt Q13438: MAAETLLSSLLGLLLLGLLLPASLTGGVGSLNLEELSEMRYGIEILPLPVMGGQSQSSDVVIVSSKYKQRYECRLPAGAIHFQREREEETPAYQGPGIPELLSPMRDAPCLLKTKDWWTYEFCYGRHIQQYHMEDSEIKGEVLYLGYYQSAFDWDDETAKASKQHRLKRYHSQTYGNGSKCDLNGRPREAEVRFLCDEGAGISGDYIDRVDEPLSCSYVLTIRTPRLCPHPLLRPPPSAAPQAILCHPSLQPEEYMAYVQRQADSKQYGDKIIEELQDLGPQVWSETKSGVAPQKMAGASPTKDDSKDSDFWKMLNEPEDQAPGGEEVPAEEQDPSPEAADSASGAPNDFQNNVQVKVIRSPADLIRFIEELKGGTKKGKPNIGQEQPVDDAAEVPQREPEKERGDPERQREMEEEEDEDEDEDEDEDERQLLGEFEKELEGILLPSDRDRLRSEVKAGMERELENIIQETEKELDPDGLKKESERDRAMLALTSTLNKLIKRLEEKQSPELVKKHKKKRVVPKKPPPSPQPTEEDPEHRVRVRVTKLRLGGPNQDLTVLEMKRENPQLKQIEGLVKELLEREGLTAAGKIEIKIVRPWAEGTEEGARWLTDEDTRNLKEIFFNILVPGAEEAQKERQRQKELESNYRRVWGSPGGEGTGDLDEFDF
UniProt Q9NZJ9: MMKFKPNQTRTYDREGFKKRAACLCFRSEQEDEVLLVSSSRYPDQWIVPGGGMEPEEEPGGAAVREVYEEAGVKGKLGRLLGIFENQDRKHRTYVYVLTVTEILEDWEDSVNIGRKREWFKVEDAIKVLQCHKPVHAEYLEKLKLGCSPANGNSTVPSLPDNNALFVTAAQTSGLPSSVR
UniProt Q9BQG2: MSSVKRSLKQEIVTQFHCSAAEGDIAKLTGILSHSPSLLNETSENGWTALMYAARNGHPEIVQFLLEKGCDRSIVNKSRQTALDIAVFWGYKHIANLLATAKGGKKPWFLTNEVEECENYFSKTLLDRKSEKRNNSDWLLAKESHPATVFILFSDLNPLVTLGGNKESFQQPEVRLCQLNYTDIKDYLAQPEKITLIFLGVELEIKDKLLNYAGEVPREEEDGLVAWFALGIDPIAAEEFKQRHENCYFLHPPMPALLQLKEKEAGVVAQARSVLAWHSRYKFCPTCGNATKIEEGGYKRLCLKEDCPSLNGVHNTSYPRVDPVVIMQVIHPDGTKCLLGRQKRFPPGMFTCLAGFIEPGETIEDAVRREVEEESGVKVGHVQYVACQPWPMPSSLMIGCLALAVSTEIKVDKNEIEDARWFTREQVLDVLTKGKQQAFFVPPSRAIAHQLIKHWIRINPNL
UniProt Q9BW91: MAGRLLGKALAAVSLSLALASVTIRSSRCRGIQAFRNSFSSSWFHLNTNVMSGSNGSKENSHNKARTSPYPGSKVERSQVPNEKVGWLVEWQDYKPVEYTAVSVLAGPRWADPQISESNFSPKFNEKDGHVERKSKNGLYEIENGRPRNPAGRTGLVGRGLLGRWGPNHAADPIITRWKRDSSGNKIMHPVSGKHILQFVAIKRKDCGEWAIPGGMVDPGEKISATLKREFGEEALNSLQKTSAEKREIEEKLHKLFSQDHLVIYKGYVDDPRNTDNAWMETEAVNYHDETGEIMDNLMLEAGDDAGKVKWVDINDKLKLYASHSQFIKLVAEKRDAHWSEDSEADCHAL
UniProt Q8TCD5: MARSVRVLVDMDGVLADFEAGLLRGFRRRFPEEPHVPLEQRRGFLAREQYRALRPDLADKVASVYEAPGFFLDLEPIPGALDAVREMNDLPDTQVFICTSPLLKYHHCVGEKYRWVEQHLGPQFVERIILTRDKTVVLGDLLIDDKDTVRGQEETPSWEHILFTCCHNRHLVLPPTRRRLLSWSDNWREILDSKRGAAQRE
UniProt Q96MG7: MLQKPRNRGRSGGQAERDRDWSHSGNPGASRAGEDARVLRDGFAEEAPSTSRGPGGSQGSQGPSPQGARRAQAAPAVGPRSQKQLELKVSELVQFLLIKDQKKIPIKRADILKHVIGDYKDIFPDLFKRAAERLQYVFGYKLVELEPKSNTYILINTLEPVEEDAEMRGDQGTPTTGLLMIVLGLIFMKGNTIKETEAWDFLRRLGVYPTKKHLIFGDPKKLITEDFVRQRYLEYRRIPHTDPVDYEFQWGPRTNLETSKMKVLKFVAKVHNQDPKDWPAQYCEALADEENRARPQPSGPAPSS
UniProt Q8N1F7: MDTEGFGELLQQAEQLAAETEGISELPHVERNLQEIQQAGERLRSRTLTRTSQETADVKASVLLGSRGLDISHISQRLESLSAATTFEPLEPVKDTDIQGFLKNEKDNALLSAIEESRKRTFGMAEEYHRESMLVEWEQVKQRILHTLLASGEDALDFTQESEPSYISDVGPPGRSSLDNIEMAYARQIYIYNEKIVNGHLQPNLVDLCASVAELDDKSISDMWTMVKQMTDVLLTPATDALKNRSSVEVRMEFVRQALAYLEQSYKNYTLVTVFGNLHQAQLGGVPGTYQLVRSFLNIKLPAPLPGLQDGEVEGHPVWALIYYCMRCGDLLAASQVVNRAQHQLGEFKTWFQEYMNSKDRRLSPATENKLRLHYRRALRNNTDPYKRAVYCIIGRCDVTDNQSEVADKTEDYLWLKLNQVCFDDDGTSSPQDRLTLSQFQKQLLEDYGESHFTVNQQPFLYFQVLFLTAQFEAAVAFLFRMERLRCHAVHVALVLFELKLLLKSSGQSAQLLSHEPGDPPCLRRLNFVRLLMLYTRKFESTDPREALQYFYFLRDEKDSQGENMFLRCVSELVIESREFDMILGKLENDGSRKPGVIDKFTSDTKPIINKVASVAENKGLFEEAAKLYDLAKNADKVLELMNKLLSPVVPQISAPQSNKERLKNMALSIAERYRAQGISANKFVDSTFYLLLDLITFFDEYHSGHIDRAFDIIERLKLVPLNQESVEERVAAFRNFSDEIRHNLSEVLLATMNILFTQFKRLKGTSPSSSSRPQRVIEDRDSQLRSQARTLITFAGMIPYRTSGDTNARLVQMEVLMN

What was measured:
Experiment in all cases: log2 fold change, soluble protein after heating vs DMSO (PISA); higher = thermal stabilisation; K562 cells, 10 uM, 30 min; active = over 0.2 and 3.5 SD of the protein, either way, in both replicates (recomputed)
[1] = compound: COC1=CC=C(C=C1)CN2C=CC3=C2C=C(C=C3)C(=O)NO
Summary of the method: (§1)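 Soluble protein was defined as the supernatant after 21,000xg for 90 min. It came from K562 cells at 2×10^6 cells/mL given 10 μM compound for 30 min, heated in aliquots for 3 min across 48°C-58°C, pooled, and extracted in PBS with 0.5% NP-40 at 4°C, and was quantified by TMTpro 16plex LC-MS/MS with equalised channel sums. Thermal stability against control samples, from duplicates, is reported as log2 fold change.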

[2] = compound: CON(C)C(=O)N1N=C(c2cc(F)ccc2F)S[C@@]1(CCCN)c1ccccc1 [filanesib]
Summary of the method: as §1

[3] = compound: CO[C@H]1C[C@@H]2CC[C@@H](C)[C@@](O)(O2)C(=O)C(=O)N2CCCC[C@H]2C(=O)O[C@H]([C@H](C)C[C@@H]2CC[C@H](n3cnnn3)[C@H](OC)C2)CC(=O)[C@H](C)/C=C(\C)[C@@H](O)[C@@H](OC)C(=O)[C@H](C)C[C@H](C)/C=C/C=C/C=C/1C [zotarolimus]
Summary of the method: as §1

[4] = compound: COc1cc(C(=O)O)ccc1NC(=O)[C@@H]1N[C@@H](CC(C)(C)C)[C@](C#N)(c2ccc(Cl)cc2F)[C@H]1c1cccc(Cl)c1F [idasanutlin]
Summary of the method: as §1

[5] = compound: COc1cc(Nc2ncc3c(n2)-c2ccc(Cl)cc2C(c2c(F)cccc2OC)=NC3)ccc1C(=O)O [alisertib]
Summary of the method: as §1

[6] = compound: COc1cc2nc(-c3cc(F)ccc3O)nc(N[C@@H]3CNC[C@H]3C(C)(C)O)c2cc1OC
Summary of the method: as §1

[7] = compound: COc1cc2ncnc(Nc3ccc(F)c(Cl)c3)c2cc1OCCCN1CCOCC1 [gefitinib]
Summary of the method: as §1

[8] = compound: COc1cccc2cc(-c3nc([C@H]4CC[C@H](C(=O)O)CC4)n4ncnc(N)c34)[nH]c12
Summary of the method: as §1

[9] = compound: CS(=O)(=O)CCNCc1ccc(-c2ccc3ncnc(Nc4ccc(OCc5cccc(F)c5)c(Cl)c4)c3c2)o1 [lapatinib]
Summary of the method: as §1

[10] = compound: CS(=O)(=O)N1CCN(Cc2cc3nc(-c4cccc5[nH]ncc45)nc(N4CCOCC4)c3s2)CC1 [pictilisib]
Summary of the method: as §1

[11] = compound: CS(=O)(=O)c1ccc(-c2cnc(N)c(C(=O)Nc3ccccc3)n2)cc1
Summary of the method: as §1

[12] = compound: C[C@@H](Oc1cc(-c2cnn(C3CCNCC3)c2)cnc1N)c1c(Cl)ccc(F)c1Cl [crizotinib]
Summary of the method: as §1

[13] = compound: C[C@@H]1COCCN1C2=NC(=NC(=C2)C3(CC3)S(=O)(=O)C)C4=C5C=CNC5=CC=C4
Summary of the method: as §1

[14] = compound: C[C@H](C1=CC=C(C=C1)C(=O)NC2=C3C=CNC3=NC=C2)N
Summary of the method: as §1

[15] = compound: C[C@H](Nc1ncnc2nc[nH]c12)c1cc2cccc(Cl)c2c(=O)n1-c1ccccc1 [duvelisib]
Summary of the method: as §1

[16] = compound: Cc1cc(Nc2cc(CN3CCOCC3)c3nc(C)c(Cc4ccc(Cl)cc4F)n3n2)n[nH]1 [gandotinib]
Summary of the method: as §1

[17] = compound: Cc1cc(Nc2cc(N3CCN(C)CC3)nc(Sc3ccc(NC(=O)C4CC4)cc3)n2)n[nH]1 [tozasertib]
Summary of the method: as §1

[18] = compound: Cc1cc(SCc2sc(-c3ccc(C(F)(F)F)cc3)nc2C)ccc1OCC(=O)O
Summary of the method: as §1

[19] = compound: Cc1ccc(-n2nc(C(C)(C)C)cc2NC(=O)Nc2ccc(OCCN3CCOCC3)c3ccccc23)cc1 [doramapimod]
Summary of the method: as §1

[20] = compound: Cc1ccc(C(=O)N(CCCN)[C@@H](c2nc3cc(Cl)ccc3c(=O)n2Cc2ccccc2)C(C)C)cc1 [ispinesib]
Summary of the method: as §1

Measured: log2 fold change

NUP62 (UniProt P37198)
inactive: [1] 0.009 | [2] 0.001 | [3] 0.008 | [4] -0.001 | [5] -0.04 | [6] 0.039 | [7] -0.035 | [8] -0.058 | [9] 0.006 | [10] 0.092 | [11] -0.002 | [12] -0.018 | [13] -0.013 | [14] 0.028 | [15] -0.012 | [16] -0.029 | [17] 0.042 | [18] 0.067 | [19] 0.008 | [20] -0.025

OXCT1 (UniProt P55809)
inactive: [1] 0.08 | [2] -0.094 | [3] 0.021 | [4] -0.033 | [5] -0.041 | [6] 0.045 | [7] 0.035 | [8] 0.018 | [9] 0.012 | [10] 0.009 | [11] 0.015 | [12] 0.101 | [13] 0.067 | [14] -0.063 | [15] -0.004 | [16] -0.02 | [17] 0.022 | [18] -0.017 | [19] -0.003 | [20] 0.125

P3H1 (UniProt Q32P28)
inactive: [1] -0.067 | [2] 0.116 | [3] 0.071 | [4] 0.121 | [5] -0.128 | [6] -0.021 | [7] 0.002 | [8] -0.106 | [9] 0.092 | [10] -0.022 | [11] 0.06 | [12] 0.051 | [13] -0.108 | [14] 0.176 | [15] -0.052 | [16] 0.128 | [17] 0.065 | [18] 0.097 | [19] 0.058 | [20] -0.025

NUDCD3 (UniProt Q8IVD9)
inactive: [1] -0.029 | [2] 0 | [3] 0.031 | [4] 0.001 | [5] -0.046 | [6] 0.03 | [7] -0.008 | [8] -0.035 | [9] -0.017 | [10] 0.001 | [11] 0.031 | [12] 0.012 | [13] 0.054 | [14] -0.011 | [15] 0.002 | [16] -0.045 | [17] 0.032 | [18] 0.096 | [19] 0.007 | [20] -0.139

NUBPL (UniProt Q8TB37)
inactive: [1] 0.051 | [2] -0.095 | [3] 0.062 | [4] 0.025 | [5] -0.068 | [6] -0.142 | [7] 0.076 | [8] 0.044 | [9] 0.11 | [10] -0.078 | [11] -0.052 | [12] -0.066 | [13] 0.072 | [14] 0.048 | [15] -0.046 | [16] 0.042 | [17] -0.006 | [18] -0.067 | [19] -0.007 | [20] -0.016

Reprinted from the results shown (2 entries):
P3H1 (UniProt Q32P28)
inactive: [1] -0.067 | [2] 0.116 | [3] 0.071 | [4] 0.121 | [5] -0.128 | [6] -0.021 | [7] 0.002 | [8] -0.106 | [9] 0.092 | [10] -0.022 | [11] 0.06 | [12] 0.051 | [13] -0.108 | [14] 0.176 | [15] -0.052 | [16] 0.128 | [17] 0.065 | [18] 0.097 | [19] 0.058 | [20] -0.025

NUDCD3 (UniProt Q8IVD9)
inactive: [1] -0.029 | [2] 0 | [3] 0.031 | [4] 0.001 | [5] -0.046 | [6] 0.03 | [7] -0.008 | [8] -0.035 | [9] -0.017 | [10] 0.001 | [11] 0.031 | [12] 0.012 | [13] 0.054 | [14] -0.011 | [15] 0.002 | [16] -0.045 | [17] 0.032 | [18] 0.096 | [19] 0.007 | [20] -0.139

Further records follow.

PAAT (UniProt Q9H8K7)
inactive: [1] -0.161 | [2] 0.029 | [3] -0.054 | [4] -0.014 | [5] 0.113 | [6] -0.039 | [7] 0.121 | [8] 0.222 | [9] 0.091 | [10] 0.001 | [11] 0.053 | [12] 0.115 | [13] -0.005 | [14] -0.006 | [15] 0.055 | [16] -0.044 | [17] 0.022 | [18] -0.092 | [19] -0.045 | [20] -0.011

NUFIP2 (UniProt Q7Z417)
inactive: [1] 0.018 | [2] 0.111 | [3] -0.073 | [4] 0.128 | [5] -0.094 | [6] -0.049 | [7] -0.012 | [8] -0.027 | [9] 0.03 | [10] -0.085 | [11] -0.042 | [12] -0.025 | [13] -0.137 | [14] 0.089 | [15] -0.11 | [16] 0.118 | [17] -0.02 | [18] -0.041 | [19] 0.11 | [20] -0.088

OS9 (UniProt Q13438)
inactive: [1] -0.039 | [2] 0.014 | [3] -0.009 | [4] 0.1 | [5] -0.047 | [6] -0.014 | [7] 0.015 | [8] -0.001 | [9] 0.034 | [10] 0.045 | [11] -0.03 | [12] 0.024 | [13] -0.093 | [14] 0.068 | [15] -0.008 | [16] 0.003 | [17] 0 | [18] 0.014 | [19] 0.032 | [20] -0.062

OCRL (UniProt Q01968)
inactive: [1] 0.011 | [2] -0.006 | [3] -0.031 | [4] -0.037 | [5] -0.009 | [6] 0.067 | [7] -0.175 | [8] 0.029 | [9] 0.022 | [10] 0.034 | [11] 0.046 | [12] -0.192 | [13] -0.028 | [14] 0.205 | [15] 0.03 | [16] -0.138 | [17] 0.025 | [18] -0.107 | [19] 0.053 | [20] -0.101

NUDT4 (UniProt Q9NZJ9)
inactive: [1] -0.076 | [2] -0.012 | [3] 0.033 | [4] -0.02 | [5] -0.055 | [6] 0.011 | [7] 0.03 | [8] -0.012 | [9] -0.015 | [10] -0.002 | [11] 0.057 | [12] 0.004 | [13] -0.02 | [14] -0.072 | [15] 0.007 | [16] -0.055 | [17] 0.028 | [18] 0.056 | [19] -0.027 | [20] -0.016

NUDT12 (UniProt Q9BQG2)
inactive: [1] 0.035 | [2] -0.01 | [3] 0.019 | [4] -0.056 | [5] -0.071 | [6] 0.03 | [7] 0.05 | [8] -0.008 | [9] 0.03 | [10] 0.058 | [11] 0.048 | [12] 0.08 | [13] 0.092 | [14] -0.004 | [15] 0.022 | [16] 0.045 | [17] 0.009 | [18] 0.02 | [19] -0.079 | [20] 0.034

NUDT9 (UniProt Q9BW91)
inactive: [1] -0.006 | [2] 0.011 | [3] 0.028 | [4] -0.007 | [5] -0.046 | [6] 0.018 | [7] 0.014 | [8] 0.028 | [9] -0.004 | [10] 0.05 | [11] -0.016 | [12] 0.074 | [13] 0.077 | [14] 0.005 | [15] 0.039 | [16] -0.001 | [17] 0.061 | [18] 0.048 | [19] -0.057 | [20] 0.03

NT5C (UniProt Q8TCD5)
inactive: [1] -0.035 | [2] -0.023 | [3] -0.038 | [4] -0.019 | [5] -0.034 | [6] 0.045 | [7] -0.005 | [8] 0.039 | [9] -0.039 | [10] 0.049 | [11] 0 | [12] 0.035 | [13] 0.061 | [14] -0.02 | [15] 0.035 | [16] 0.038 | [17] -0.044 | [18] -0.04 | [19] -0.01 | [20] 0.011

NSMCE3 (UniProt Q96MG7)
inactive: [1] 0.035 | [2] -0.021 | [3] -0.01 | [4] -0.09 | [5] -0.117 | [6] 0.046 | [7] -0.005 | [8] 0.072 | [9] -0.064 | [10] 0.046 | [11] -0.022 | [12] 0.084 | [13] -0.015 | [14] 0.09 | [15] 0.076 | [16] 0.007 | [17] -0.048 | [18] 0.034 | [19] -0.115 | [20] 0.027

NUP93 (UniProt Q8N1F7)
inactive: [1] 0.006 | [2] -0.044 | [3] 0.012 | [4] -0.033 | [5] -0.036 | [6] 0.018 | [7] -0.003 | [8] -0.087 | [9] -0.011 | [10] -0.011 | [11] 0.003 | [12] -0.135 | [13] 0.026 | [14] 0.025 | [15] -0.016 | [16] -0.045 | [17] 0.168 | [18] 0.063 | [19] 0.015 | [20] -0.028
